Source: article PMC5024446

Amino acid sequences for entries named in this document (tags omitted). A change or cut given only in a name is not applied to a line headed by its entry. Residues count along the entry.
UniProt Q69467, residues 26-393: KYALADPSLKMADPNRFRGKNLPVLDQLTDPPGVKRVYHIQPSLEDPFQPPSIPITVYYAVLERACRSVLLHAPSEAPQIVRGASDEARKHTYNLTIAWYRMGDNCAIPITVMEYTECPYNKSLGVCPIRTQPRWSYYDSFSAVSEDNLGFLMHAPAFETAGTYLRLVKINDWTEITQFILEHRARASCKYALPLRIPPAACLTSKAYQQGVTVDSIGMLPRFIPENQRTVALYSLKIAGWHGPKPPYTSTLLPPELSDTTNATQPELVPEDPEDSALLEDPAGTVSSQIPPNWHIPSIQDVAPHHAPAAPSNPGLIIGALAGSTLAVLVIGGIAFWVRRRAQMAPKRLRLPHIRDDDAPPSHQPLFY
UniProt Q10589: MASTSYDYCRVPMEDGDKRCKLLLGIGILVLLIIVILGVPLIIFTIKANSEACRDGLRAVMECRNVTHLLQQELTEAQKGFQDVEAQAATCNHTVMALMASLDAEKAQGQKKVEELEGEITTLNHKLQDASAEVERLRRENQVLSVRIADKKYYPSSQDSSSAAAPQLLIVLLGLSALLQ

What was measured:
[1] = molecular target: HSV-2 glycoprotein D fused to flag tag (HSV-2) (UniProt Q69467); assay: co-IP; 293T cells cotransfected with gD-flag and a tetherin mutant; precleared lysates precipitated with anti-flag antibody (isotype control antibody beside it), western blot for tetherin; Pierce Crosslink Immunoprecipitation Kit
[2] = molecular target: tetherin deletion mutant delCT (20-180 aa of human tetherin) (human) (UniProt Q10589); assay: co-IP; 293T cells cotransfected with gD-flag and a tetherin mutant; lysates precipitated with the rabbit polyclonal antibody against tetherin, western blot with the flag antibody; Pierce Crosslink Immunoprecipitation Kit

| Substance | binding [1] | binding [2] |
| --- | --- | --- |
| tetherin deletion mutant delCT (20-180 aa of human tetherin) (from UniProt Q10589) (domain or fragment) | binds |  |
| HSV-2 glycoprotein D fused to flag tag (from UniProt Q69467 26-393) |  | binds |

Results are given in words; binding and its absence hold for the method and conditions named. Binding seen in cells or lysates may run through a third protein. A result given as binding can be weak or reduced; the word gives no strength.
